Measurements reported in PubChem BioAssay AID1259405 (NCATS, 2018)

- Purpose: 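Mouse-designed siRNAs used to find CHO productivity engineering targets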 (primary screen)
- System: Chinese hamster CHO-K1 ovary cells with stable secreted eGFP expression
- Knock-down reagent: single siRNA against mouse genes, 0.8 pmol siRNA per well (2 µl of 400 nM stock)
- Duration: 3 days
- Read-out: 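Per-well intracellular GFP measured by laser scanning cytometry, plus viability from ATP luminescence, each relative to plate median of non-targeting control wells, in %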
- Direction: GFP, % of control: higher = more GFP per well, higher productivity; viability (ATP), % of control: higher = more viable cells (more ATP)
- Call rule: 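a knock-down is called active if GFP reaches 120% or more of non-targeting control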
The whole screen tested about 50,000 reagents; this is an unselected part. Of all reagents, about 4,000 (8%) got an active call. 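Mouse siRNA library applied to hamster cells; one well for each siRNA.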 Entries without a mark were called inactive. Reagents against one gene are numbered here.

| GFP, % of control | viability (ATP), % of control | gene symbol | reagent |
| --- | --- | --- | --- |
| 45.4 | 67.9 | Mybbp1a (GeneID 18432) | 1 |
| 9.63 | 10 | Mybbp1a (GeneID 18432) | 2 |
| 130 (active) | 80 | Mybbp1a (GeneID 18432) | 3 |
| 76.3 | 88.7 | Serpinb6a (GeneID 20719) | 1 |
| 86.9 | 85.4 | Serpinb6a (GeneID 20719) | 2 |
| 78.5 | 75.1 | Serpinb6a (GeneID 20719) | 3 |
| 58.9 | 68.8 | Glp2r (GeneID 93896) | 1 |
| 80.2 | 77.7 | Glp2r (GeneID 93896) | 2 |
| 76.6 | 65.3 | Cct6a (GeneID 12466) | 1 |
| 88.7 | 49.9 | Cct6a (GeneID 12466) | 2 |
| 50.4 | 30.4 | Cct6a (GeneID 12466) | 3 |
| 115 | 105 | Mrpl4 (GeneID 66163) | 1 |
| 105 | 66.7 | Mrpl4 (GeneID 66163) | 2 |
| 50 | 54.6 | Mrpl4 (GeneID 66163) | 3 |
| 98.5 | 78.8 | Kctd20 (GeneID 66989) | 1 |
| 37.2 | 21.2 | Kctd20 (GeneID 66989) | 2 |
| 47.3 | 68.8 | Kctd20 (GeneID 66989) | 3 |
| 50 | 64.8 | Ifi209 (GeneID 236312) | 1 |
| 32.6 | 41.9 | Ifi209 (GeneID 236312) | 2 |
| 76.7 | 104 | Ifi209 (GeneID 236312) | 3 |
| 86.2 | 93.7 | Usp26 (GeneID 83563) | 1 |
| 83 | 71.4 | Usp26 (GeneID 83563) | 2 |
| 41.4 | 52 | Usp26 (GeneID 83563) | 3 |
| 42.8 | 51.6 | Spart (GeneID 229285) | 1 |
| 81 | 109 | Spart (GeneID 229285) | 2 |
| 106 | 79.9 | Spart (GeneID 229285) | 3 |
| 64.1 | 81.2 | Entpd4 (GeneID 67464) | 1 |
| 107 | 77.5 | Entpd4 (GeneID 67464) | 2 |
| 98.1 | 82 | Entpd4 (GeneID 67464) | 3 |
| 78 | 91.7 | Cep295nl (GeneID 58251) | 1 |
| 132 (active) | 123 | Cep295nl (GeneID 58251) | 2 |
| 97 | 80.9 | Cep295nl (GeneID 58251) | 3 |
| 103 | 67.9 | Slc34a3 (GeneID 142681) | 1 |
| 50.4 | 37.4 | Slc34a3 (GeneID 142681) | 2 |
| 56.7 | 85.2 | Slc34a3 (GeneID 142681) | 3 |
| 65.4 | 70.4 | Cdh24 (GeneID 239096) | 1 |
| 72.1 | 48.5 | Cdh24 (GeneID 239096) | 2 |
| 67.1 | 64.3 | Cdh24 (GeneID 239096) | 3 |
| 53.8 | 49.1 | Sowahd (GeneID 245381) | 1 |
| 110 | 55.6 | Sowahd (GeneID 245381) | 2 |
| 127 (active) | 106 | Sowahd (GeneID 245381) | 3 |
| 79.7 | 70.9 | Or8b35 (GeneID 258413) | 1 |
| 90.5 | 37.5 | Or8b35 (GeneID 258413) | 2 |
| 88.9 | 111 | Or8b35 (GeneID 258413) | 3 |
| 83.1 | 95.2 | Arg1 (GeneID 11846) | 1 |
| 147 (active) | 133 | Arg1 (GeneID 11846) | 2 |
| 108 | 108 | Arg1 (GeneID 11846) | 3 |
| 75.4 | 90.7 | Arg1 (GeneID 11846) | 4 |
| 107 | 113 | Arg1 (GeneID 11846) | 5 |
| 149 (active) | 88.1 | Arg1 (GeneID 11846) | 6 |
| 110 | 109 | Fas (GeneID 14102) | 1 |
| 89.9 | 84.5 | Fas (GeneID 14102) | 2 |
| 57 | 58.4 | Fas (GeneID 14102) | 3 |
| 111 | 59.2 | Gbp8 (GeneID 76074) | 1 |
| 104 | 73.4 | Gbp8 (GeneID 76074) | 2 |
| 82.9 | 76.5 | Gbp8 (GeneID 76074) | 3 |
| 92.7 | 91.8 | Jag1 (GeneID 16449) | 1 |
| 88.8 | 64.6 | Jag1 (GeneID 16449) | 2 |
| 89.4 | 69.7 | Jag1 (GeneID 16449) | 3 |

8 entries already listed, ordered by “viability (ATP), % of control”, highest first.
| GFP, % of control | viability (ATP), % of control | gene symbol | reagent |
| --- | --- | --- | --- |
| 147 (active) | 133 | Arg1 (GeneID 11846) | 2 |
| 107 | 113 | Arg1 (GeneID 11846) | 5 |
| 88.9 | 111 | Or8b35 (GeneID 258413) | 3 |
| 108 | 108 | Arg1 (GeneID 11846) | 3 |
| 83.1 | 95.2 | Arg1 (GeneID 11846) | 1 |
| 75.4 | 90.7 | Arg1 (GeneID 11846) | 4 |
| 149 (active) | 88.1 | Arg1 (GeneID 11846) | 6 |
| 90.5 | 37.5 | Or8b35 (GeneID 258413) | 2 |
